# Hit rate of the full screen: of about 310,000 compounds, about 17,000 (5.5%) were called active. This list was built around the results that the source calls inconclusive (neither active nor inactive); the mix of calls is not that of the screen. The call rests on the fitted dose curve; in most records, active means well fitted inhibition curve with a large enough effect; inconclusive means small, poorly fitted or top-dose-only effect, or effect the other way; inactive means no such curve, though single readings can be large or run the other way. Potencies of inconclusive entries are doubtful fits and often do not repeat. A structure can be active in one record and inactive in another.
# Amino acid sequences for entries named in this document (tags omitted). A change or cut given only in a name is not applied to a line headed by its entry.
# UniProt P51450: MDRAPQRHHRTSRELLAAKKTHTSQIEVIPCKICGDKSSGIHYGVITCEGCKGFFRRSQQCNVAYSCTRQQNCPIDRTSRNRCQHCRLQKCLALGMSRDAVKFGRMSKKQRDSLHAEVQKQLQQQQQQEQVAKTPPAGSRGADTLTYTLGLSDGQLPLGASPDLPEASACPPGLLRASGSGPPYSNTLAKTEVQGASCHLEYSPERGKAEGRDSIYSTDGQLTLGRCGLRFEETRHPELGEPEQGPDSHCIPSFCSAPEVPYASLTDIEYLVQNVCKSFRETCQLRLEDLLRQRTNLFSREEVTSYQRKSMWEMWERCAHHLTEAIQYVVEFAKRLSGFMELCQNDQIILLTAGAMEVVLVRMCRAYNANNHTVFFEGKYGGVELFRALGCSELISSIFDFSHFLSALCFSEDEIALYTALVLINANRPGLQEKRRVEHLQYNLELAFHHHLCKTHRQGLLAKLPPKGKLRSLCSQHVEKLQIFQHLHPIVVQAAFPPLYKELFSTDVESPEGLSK
# Biological target: Nuclear receptor ROR-gamma (Mus musculus) (UniProt P51450)
# Experiment: qHTS for inhibitors of ROR gamma transcriptional activity; further: nearly all actives have a fitted effect of over 60% in size
# Conditions: Drosophila S2 Gal4-RORgamma UAS-luciferase reporter, 20 h; activity change, negative = inhibition: at 53.6 µM (top of the series)
# Outline: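 In this cell-based reporter format, copper sulfate (700 uM final) drives Gal4–ROR gamma fusion expression from a metallothionein promoter in Drosophila Schneider cells; compounds preincubated 1 hr, reporter read after 20 hr at ambient temperature.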
# On the % scale 0 is the no-effect control and ±100 the full control effect; potency means the concentration at half of the fitted maximal effect.
SMILES,Potency,"activity change, negative = inhibition"
CC1(C)Cc2ccccc2C(COc2ccccc2)=N1,"inconclusive: 35.5 µM [inhibitor, single point]",
Cc1ccc(C(=O)NC(=S)NCCCN2CCOCC2)cc1,active: 17.8 µM,
COc1ccc(CCNC(=O)CCn2c(SCC#N)nc3ccccc3c2=O)cc1OC,"inconclusive: 35.5 µM [inhibitor, single point]",
CC(C)(C)[C@@H]1C=C(C(=O)N2CCN(Cc3ccccc3)CC2)O[C@H](OCc2ccc(CO)cc2)C1,,inactive: -1.03%
Cc1cccc(NC(=S)N2CCN(C(=O)C3CCCO3)CC2)c1 (stereo not given),,inactive: -16.3%
S=C(NCC1CCCO1)NC1CCCCC1 (stereo not given),"inconclusive: 35.5 µM [inhibitor, single point]",
COC(=O)c1ccc(C(NC(=O)OCc2ccccc2)/C(F)=C/[C@@H](C)C(=O)NCc2cccnc2)cc1 (stereo not given in full),,inactive: 18%
O=C(NCCc1ccccc1)c1cccc2c1C(=O)N(C1CCCCC1)C2,,inactive: 9.9%
Cc1cc(OCc2cc(C(=O)NC(C)c3c(C)nn(C)c3C)no2)cc(C)c1Cl (stereo not given),,inactive: 8.82%
C=CCn1c(C)cc(-c2csc(N)n2)c1C,,inactive: -20.7%
Nc1nc(-c2ccccn2)nc(N)c1Cc1ccc(Cl)cc1Cl,active: 3.98 µM,
Cc1cc(=O)oc2c1c(C)nn2-c1ccc(Br)cc1,,inactive: 21.3%
Cc1ccc(OCCN2CCN(C(=O)CCC(=O)Nc3nnc(C(C)C)s3)CC2)cc1,,inactive: 38.1%
Cc1cc2nc(C3CCCN(C(=O)NCc4ccccc4)C3)[nH]c2cc1C (stereo not given),,inactive: 3.01%
CCc1nc2ccccc2n1CCC(C)C,active: 10 µM,
Fc1ccc(COc2ccccc2C(=S)N2CCCC2)cc1,"inconclusive: 20 µM [inhibitor, single point]",
O=C(N/N=C/c1ccc([N+](=O)[O-])s1)c1ccccc1,active: 0.794 µM,
CCC(=O)Nc1ccc(NC(=O)c2cc3ccccc3o2)c(OC)c1,"inconclusive: 12.6 µM [activator, partial curve]",
c1ccc2nc(-c3ccc4c(c3)OCO4)ccc2c1,"inconclusive: 0.501 µM [activator, full curve]",
CC12CC(NC(=O)N1c1cccc(C(=O)N3CCN(c4ccccc4)CC3)c1)c1ccccc1O2 (stereo not given),"inconclusive: 11.2 µM [activator, partial curve]",
O=C(N/N=C/c1cc(Br)cc([N+](=O)[O-])c1O)c1ccc(NC(=O)c2ccc(F)cc2)cc1,active: 8.91 µM,
COc1ccc(C(CC(=O)c2ccc(O)cc2)S(=O)(=O)c2ccc(C)cc2)cc1 (stereo not given),active: 1.78 µM,
CCOc1ccc(S(=O)(=O)N2CCCCC2)c2ccccc12,"inconclusive: 35.5 µM [activator, single point]",
Cn1ccc2cc(NC(=O)Nc3cccnc3)ccc21,"inconclusive: 12.6 µM [activator, partial curve]",

# Arranged by count of non-hydrogen atoms (high to low): some entries from above.
SMILES,Potency,"activity change, negative = inhibition"
Cc1ccc(OCCN2CCN(C(=O)CCC(=O)Nc3nnc(C(C)C)s3)CC2)cc1,,inactive: 38.1%
CCC(=O)Nc1ccc(NC(=O)c2cc3ccccc3o2)c(OC)c1,"inconclusive: 12.6 µM [activator, partial curve]",
Nc1nc(-c2ccccn2)nc(N)c1Cc1ccc(Cl)cc1Cl,active: 3.98 µM,
c1ccc2nc(-c3ccc4c(c3)OCO4)ccc2c1,"inconclusive: 0.501 µM [activator, full curve]",
C=CCn1c(C)cc(-c2csc(N)n2)c1C,,inactive: -20.7%

# Next part.

SMILES,Potency,"activity change, negative = inhibition"
CC(C)CCCN1C(Nc2ccccc2)=NC[C@@H]1C,,inactive: -22.1%
Brc1ccc2ncnc(Nc3ccc(N4CCOCC4)cc3)c2c1,"inconclusive: 7.08 µM [activator, partial curve]",
Cc1nc(-c2ccccc2)nc2[nH]c(=O)n(-c3ccccc3)c(=O)c12,"inconclusive: 20 µM [activator, single point]",
Cc1cc(C(=O)NNC(=S)NC(C)c2ccccc2)cs1 (stereo not given),"inconclusive: 12.6 µM [inhibitor, single point]",
CC(=O)Nc1ccc(/C=C(\C#N)C(=O)NC2CCCCC2)cc1,,inactive: -2.01%
Cc1ccccc1NC(=O)c1c(C)[nH]c(=S)c(C#N)c1-c1ccco1,"inconclusive: 25.1 µM [inhibitor, partial curve, poor fit]",
CCOc1ccc2nc(Cl)c(/C=C/C(=O)c3ccco3)cc2c1,"inconclusive: 22.4 µM [inhibitor, single point]",
CC(C)NC(=S)NN=C1CCCCCCCCCCC1,active: 0.447 µM,
CCN(Cc1ccccc1)S(=O)(=O)c1ccc2oc(C(=O)O)c(C)c2c1,"inconclusive: 4.47 µM [inhibitor, partial curve]",
Cc1ccccc1NS(=O)(=O)c1ccc(NS(=O)(=O)c2cccs2)cc1,"inconclusive: 10 µM [activator, partial curve]",
O=c1cnc2ccccc2n1Cc1ccc(Br)cc1,"inconclusive: 20 µM [activator, single point]",
CCN1CCN(Cc2ccc(NC(=O)c3cc(NC(=O)C4=NN(c5ccccc5)C(=O)C4)cc(OC)c3)cc2C(F)(F)F)CC1,,inactive: 6.83%
CC(=O)[C@]1(O)Cc2c(O)c3c(c(O)c2[C@@H](O[C@H]2C[C@H](N)[C@H](O)[C@H](C)O2)C1)C(=O)c1ccccc1C3=O,"inconclusive: 17.8 µM [inhibitor, partial curve, poor fit]",
Cc1nc(-c2nc(CC(=O)NNC(=O)c3ccc(Cl)cc3)cs2)cs1,,inactive: -17.2%
CCOc1cc(/C=N/Nc2ccc(C(=O)O)cc2)ccc1OC(=O)c1ccccc1C,"inconclusive: 10 µM [inhibitor, partial curve, poor fit]",
COCCn1c(=O)[nH]c2cc(C(=O)N3CCN(c4cccc(Cl)c4)CC3)ccc2c1=O,"inconclusive: 14.1 µM [activator, single point]",
CCCCN1C=CC(=C2N=c3cccc([N+](=O)[O-])c3=N2)C=C1,"inconclusive: 15.8 µM [inhibitor, single point]",
COc1ccc(C(C)=O)cc1CSc1nnc(-c2ccccc2O)n1-c1ccccc1,active: 2.82 µM,
Cc1ccc(Cl)cc1N1CCN(S(=O)(=O)c2c(C(=O)N3CCOCC3)c(C)n(C)c2C)CC1,"inconclusive: 35.5 µM [activator, single point]",
Cc1cccc(-n2c(O)c(C=NCc3ccccn3)c3ccccc3c2=O)c1,"inconclusive: 3.16 µM [inhibitor, single point]",
N#Cc1c(/N=C/N2CCOCC2)sc2c1CCCCC2,"inconclusive: 0.178 µM [activator, full curve, poor fit]",
C=CCn1c(SCC(=O)Nc2cc(OC)c(NC(=O)c3ccco3)cc2OC)nnc1-c1ccncc1,"inconclusive: 0.355 µM [activator, full curve]",
CC(NC(=S)Nc1ccccc1)C1COc2ccccc2O1 (stereo not given),active: 6.31 µM,
Cc1ccc(NS(=O)(=O)c2ccc3c(c2)oc(=O)n3C)cc1C,"inconclusive: 11.2 µM [activator, partial curve, poor fit]",

SMILES,Potency,"activity change, negative = inhibition"
C=CCSc1nc2c(c(=O)[nH]c(=O)n2C)n1Cc1ccc(C)cc1,"inconclusive: 11.2 µM [activator, single point]",
Clc1cc2c(c(Cn3cnc4ccccc43)c1)OCOC2,"inconclusive: 6.31 µM [inhibitor, full curve, poor fit]",
O=C(N/N=C/c1ccc(F)cc1)c1cccc(NC(=O)c2ccc(F)cc2)c1,,inactive: -20.6%
O=C(NCC(c1ccc(F)cc1)N1CCOCC1)c1cc(F)c(F)c(F)c1F (stereo not given),,inactive: -27.2%
O=C(N/N=C/c1cccc(O)c1)NC1CCCCC1,"inconclusive: 3.55 µM [activator, partial curve]",
O=C(N/N=C\c1c(O)ccc2ccccc12)c1cncc(Br)c1,active: 5.01 µM,
Cc1ccc(O)c(Nc2ncnc3ccccc23)c1,"inconclusive: 35.5 µM [activator, single point]",
COc1ccc(CNC(=O)COc2ccc(S(=O)(=O)N3CCCCC3)cc2)cc1,"inconclusive: 0.891 µM [activator, single point]",
NS(=O)(=O)c1ccc(NC(=S)Nc2ccc(Br)c(Cl)c2)cc1,,inactive: -26.3%
CCOc1cccc(C(=O)Nc2ccncc2)c1,"inconclusive: 12.6 µM [activator, partial curve]",
Cc1c(Cl)cccc1NC(=S)NC1CCN(Cc2ccccc2)CC1,active: 10 µM,
C/C(=N\Nc1nc2ccccc2[nH]1)c1ccc([N+](=O)[O-])cc1,"inconclusive: 2.51 µM [inhibitor, partial curve]",
CCCNC(=S)N1CCN(c2nc(C)nc3sc4c(c23)CCCC4)CC1,"inconclusive: 35.5 µM [inhibitor, single point]",
CC(=O)OCC1=C(C(=O)O)N2C(=O)C(NC(=O)CSc3ccncc3)[C@@H]2SC1 (stereo not given in full),,inactive: 8.28%
O=C(O)/C=C/c1nc(-c2ccccc2)n2ccccc12,"inconclusive: 0.0045 µM [activator, full curve, poor fit]",
O=C(OCC1OC(OC(=O)c2cc(O)c(O)c(OC(=O)c3cc(O)c(O)c(O)c3)c2)[C@@H](OC(=O)c2cc(O)c(O)c(OC(=O)c3cc(O)c(O)c(O)c3)c2)C(OC(=O)c2cc(O)c(O)c(OC(=O)c3cc(O)c(O)c(O)c3)c2)C1OC(=O)c1cc(O)c(O)c(OC(=O)c2cc(O)c(O)c(O)c2)c1)c1cc(O)c(O)c(OC(=O)c2cc(O)c(O)c(O)c2)c1 (stereo not given in full),"inconclusive: 35.5 µM [inhibitor, single point]",
O=C(CCc1nnc(CCCc2ccccc2)o1)NCCCC1CCCC1,"inconclusive: 11.2 µM [activator, partial curve]",
CCCN1CNC(=S)N(CCc2ccccc2)C1,active: 3.98 µM,
COc1ccc(OCc2cc(/C=N\NC(=O)c3ccccc3)ccc2OC)cc1,"inconclusive: 14.1 µM [activator, partial curve]",
CC(C)(CNC(=O)c1cc(=O)[nH]c2ccccc12)N1CCOCC1,"inconclusive: 15.8 µM [inhibitor, single point]",
S=C(Nc1ccc(Cl)cc1Cl)NC1CCCCC1,"inconclusive: 7.94 µM [inhibitor, full curve, poor fit]",
CN1CCN(CCCN2c3ccccc3Sc3ccc(Cl)cc32)CC1,active: 2.82 µM,

# Reference: PubChem BioAssay AID2551 (National Center for Advancing Translational Sciences (NCATS), 2010)
